Construct, isoform or probe ends are uncertain for at least one entry. Protein sequences can lack the tags named with them.
Test system: T1, MbkZ (Streptomyces sp. MBK6)
T1 sequence (limits assumed): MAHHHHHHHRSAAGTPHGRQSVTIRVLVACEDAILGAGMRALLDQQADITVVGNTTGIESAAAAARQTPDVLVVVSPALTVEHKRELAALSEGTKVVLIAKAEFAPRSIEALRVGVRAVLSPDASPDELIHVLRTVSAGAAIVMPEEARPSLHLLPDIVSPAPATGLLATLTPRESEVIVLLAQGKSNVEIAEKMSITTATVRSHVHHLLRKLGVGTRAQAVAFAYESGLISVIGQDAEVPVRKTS
Assay: EMSA
Conditions: 266 nM protein, 0.63 nM DNA; 20 mM HEPES, 50 mM (NH4)2SO4, 1 mM DTT, 50 mM KCl, 5 mM MgCl2, 1% Tween 20, 13.3 mM Tris, 80 mM NaCl, 8% glycerol; pH of binding mix not stated; recombinant protein; protein details: N-terminal His-tag plus 12 aa linker; label: 5'-DY682; probe letters rebuilt from the primers and the genome

Row | Sequence | binding result
1 | AGATGGCGTCTGGGAACCGCTGGCTTTGTCATCCCCTCCAGTATGCGCCCATCCGGGCCCGCCGGGGCGATCCCGGCGGCTCCGGATGCCGGCCGGCCGCCCCGCGGCCGCCTCCCGGCCGCTCCCCGTCCTCAACGAATGGTGGAGACCACCGGGTGGGCCGGGGCAGCCTGGCGTGGAGTGGAGAAATCCATCATTGGATGGATGACAGGAATCGGGACGGCTGAAAAACTCAAGCCAGAGTTTCGCATTCAAACACCTCTGCCACCGGCGAACAGGCAGCGCTCCGGCGGGGGCTTGAACACGGGTCTCCCCAATGGCGCGACACCGCTGACACGCTGGTCCGATTTCCGTTTCGCAGCAGACCGGGGGAGTGGCTTGCGCATCAATATTCTGGGGCCCGTTTTCGTCGACGCCGAGGGACAGACACACGCCATTCGCGCCAACAAGGTG (double strand) [mbkD promoter (mbkDp)] | binds
2 | GAACCGAGGCGACGGAAGGAGGTGGGGTCCCGGTCGATCACGGCGACCGTGTGCCCCTGCTGCTCCAGGGCCTGGGCGAGCGCGGAGCCCACGCGCCCGCAGCCCATGATGACAATGTGCACGGCTTACACCACTCTTCTTCTCTGCCCTCTGACCGCGGTGAACATCCCGTTCATCTTCCTCTTTCGGCTCGACGGGCAAACATCTGCGGCCCCCACCGAGGGCCGCAGCCACCATCATGCCGGTCCACCGCCGTCGCACCCCGGTGGGGTGCTTCGTTTGCGTCGTTCAGTTCCGTTGAACCGGAGTGCGGTACGGCCTCAACACATTGACGGTGGTGTCGGGAATCACCCGTCCTGTGTTGAGGCCCGAATCCGATCGTTCGGTGGATGACGGGTGGGGGAGTGCTTGCCACGATGGACC (double strand) [redD promoter (redDp)] | binds

— paper PMC8102152
